The chains behind the UniProt entries cited, without tags or fusion partners. Residues count along the entry.
UniProt Q3UU41, residues 29-150: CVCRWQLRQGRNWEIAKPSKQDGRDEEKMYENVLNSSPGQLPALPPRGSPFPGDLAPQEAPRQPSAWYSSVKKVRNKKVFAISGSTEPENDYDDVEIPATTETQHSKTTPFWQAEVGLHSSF
UniProt P25911: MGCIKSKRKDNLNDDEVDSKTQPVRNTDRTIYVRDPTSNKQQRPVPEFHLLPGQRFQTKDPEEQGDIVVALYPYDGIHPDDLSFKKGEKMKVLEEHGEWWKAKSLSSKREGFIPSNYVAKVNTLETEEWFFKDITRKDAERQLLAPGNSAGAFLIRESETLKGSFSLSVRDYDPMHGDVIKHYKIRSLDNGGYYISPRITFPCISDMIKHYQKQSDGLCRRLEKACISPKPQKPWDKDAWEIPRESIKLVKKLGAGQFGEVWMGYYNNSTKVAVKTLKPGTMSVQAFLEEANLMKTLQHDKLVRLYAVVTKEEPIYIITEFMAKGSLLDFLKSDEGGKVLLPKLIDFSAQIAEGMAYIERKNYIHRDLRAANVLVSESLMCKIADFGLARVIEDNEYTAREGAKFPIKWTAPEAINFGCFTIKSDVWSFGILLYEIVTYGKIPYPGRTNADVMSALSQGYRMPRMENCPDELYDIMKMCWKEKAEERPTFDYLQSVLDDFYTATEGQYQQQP
UniProt Q9QUK6, residues 26-835: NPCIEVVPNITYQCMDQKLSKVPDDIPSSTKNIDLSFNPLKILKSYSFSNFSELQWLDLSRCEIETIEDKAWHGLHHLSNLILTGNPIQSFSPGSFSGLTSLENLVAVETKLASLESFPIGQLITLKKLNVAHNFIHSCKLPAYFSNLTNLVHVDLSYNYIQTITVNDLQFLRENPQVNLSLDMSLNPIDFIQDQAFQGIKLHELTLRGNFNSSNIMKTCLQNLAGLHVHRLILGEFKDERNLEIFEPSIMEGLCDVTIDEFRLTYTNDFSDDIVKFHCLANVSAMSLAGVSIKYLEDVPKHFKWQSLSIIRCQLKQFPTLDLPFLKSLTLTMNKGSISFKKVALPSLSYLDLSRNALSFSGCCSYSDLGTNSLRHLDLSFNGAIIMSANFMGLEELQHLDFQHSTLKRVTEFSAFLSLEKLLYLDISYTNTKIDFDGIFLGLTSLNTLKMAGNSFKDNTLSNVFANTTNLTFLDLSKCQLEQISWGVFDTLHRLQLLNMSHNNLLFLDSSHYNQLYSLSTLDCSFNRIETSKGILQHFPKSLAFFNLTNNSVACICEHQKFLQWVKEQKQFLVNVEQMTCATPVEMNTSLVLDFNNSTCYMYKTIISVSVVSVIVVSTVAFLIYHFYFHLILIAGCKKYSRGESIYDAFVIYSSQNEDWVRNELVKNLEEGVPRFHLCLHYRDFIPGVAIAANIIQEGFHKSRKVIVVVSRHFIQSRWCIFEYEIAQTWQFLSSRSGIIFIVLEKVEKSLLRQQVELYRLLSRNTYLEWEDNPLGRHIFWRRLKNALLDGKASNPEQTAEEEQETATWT

According to paper PMC5253658:

biological target: GST-SCIMP-T1 (entire intracellular region of murine SCIMP, amino acids 29-150) (mouse) (UniProt Q3UU41); test: affinity purification with mass spectrometry; GST-SCIMP-T1 on GSH-Sepharose; extracts of LPS-activated RAW264.7 cells; protease cleavage elution, SDS-PAGE, excised bands by LC/MS/MS; GST control; only the target purified

binding, binds:
Grb2 adaptor protein, endogenous in mouse macrophages (from UniProt Q60631 1-217)
Lyn tyrosine kinase, endogenous in mouse macrophages (from UniProt P25911 1-512) (enzyme)
endogenous TLR4 of mouse macrophages (from UniProt Q9QUK6 26-835) (receptor)

No constants are given. Whether binding was seen depends on the method and setting. Binding seen in cells or lysates may run through a third protein. A yes stands for co-enrichment or nearness to the bait. Other partners may have been found.
